In brackets after ≈: the same amount, converted by molar mass.
Experiment: Solubility of the compound in PBS buffer after 16 hrs

Molecule `O=C1CC(=O)N(CCc2cccc(F)c2)C(=O)N1CCc1cccc(F)c1` has a solubility of 31.3 µM (≈ 11.7 µg/mL).
